Results: the supplement of paper PMC4862054
Small differences around the control level are noise.

How the values were obtained:
Assay in all cases: normalised response (% of control), CellTox Green; higher = less cell death (100 = DMSO, 0 = benzethonium chloride kill control)
Conditions in all cases: incubation time: 72 h
BT-474 [1] = test system: BT-474
Protocol: (§1)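 DSRT, 72 h incubation, CellTox Green / CellTiter-Glo readout. Signal is normalised to DMSO and benzethonium chloride controls. Value is the normalised response at the lowest tested concentration.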

BT-549 [2] = test system: BT-549
Protocol: as §1

CAL-120 [3] = test system: CAL-120
Protocol: as §1

CAL-148 [4] = test system: CAL-148
Protocol: as §1

CAL-51 [5] = test system: CAL-51
Protocol: as §1

CAL-85-1 [6] = test system: CAL-85-1
Protocol: as §1

DU-4475 [7] = test system: DU-4475
Protocol: as §1

HCC1143 [8] = test system: HCC1143
Protocol: as §1

HCC1599 [9] = test system: HCC1599
Protocol: as §1

HCC1937 [10] = test system: HCC1937
Protocol: as §1

HDQ-P1 [11] = test system: HDQ-P1
Protocol: as §1

MCF-10A [12] = test system: MCF-10A
Protocol: as §1

MDA-MB-231 [13] = test system: MDA-MB-231
Protocol: as §1

MDA-MB-436 [14] = test system: MDA-MB-436
Protocol: as §1

MDA-MB-453 [15] = test system: MDA-MB-453
Protocol: as §1

MDA-MB-468 [16] = test system: MDA-MB-468
Protocol: as §1

MFM-223 [17] = test system: MFM-223
Protocol: as §1

Hs578T [18] = test system: Hs578T
Protocol: as §1

BT-474 [19] = test system: BT-474; remark: listed apart in the source
Protocol: (§2)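 DSRT, 72 h incubation, CellTox Green / CellTiter-Glo readout. Signal is normalised to DMSO and benzethonium chloride controls. Value is the normalised response at dose 2.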

BT-549 [20] = test system: BT-549; remark: listed apart in the source
Protocol: as §2

CAL-120 [21] = test system: CAL-120; remark: listed apart in the source
Protocol: as §2

CAL-148 [22] = test system: CAL-148; remark: listed apart in the source
Protocol: as §2

CAL-51 [23] = test system: CAL-51; remark: listed apart in the source
Protocol: as §2

CAL-85-1 [24] = test system: CAL-85-1; remark: listed apart in the source
Protocol: as §2

DU-4475 [25] = test system: DU-4475; remark: listed apart in the source
Protocol: as §2

HCC1143 [26] = test system: HCC1143; remark: listed apart in the source
Protocol: as §2

HCC1599 [27] = test system: HCC1599; remark: listed apart in the source
Protocol: as §2

HCC1937 [28] = test system: HCC1937; remark: listed apart in the source
Protocol: as §2

HDQ-P1 [29] = test system: HDQ-P1; remark: listed apart in the source
Protocol: as §2

Hs578T [30] = test system: Hs578T; remark: listed apart in the source
Protocol: as §2

MCF-10A [31] = test system: MCF-10A; remark: listed apart in the source
Protocol: as §2

MDA-MB-231 [32] = test system: MDA-MB-231; remark: listed apart in the source
Protocol: as §2

MDA-MB-436 [33] = test system: MDA-MB-436; remark: listed apart in the source
Protocol: as §2

MDA-MB-453 [34] = test system: MDA-MB-453; remark: listed apart in the source
Protocol: as §2

MDA-MB-468 [35] = test system: MDA-MB-468; remark: listed apart in the source
Protocol: as §2

MFM-223 [36] = test system: MFM-223; remark: listed apart in the source
Protocol: as §2

Compound	normalised response (BT-474 [1]) [%]	normalised response (BT-549 [2]) [%]	normalised response (CAL-120 [3]) [%]	normalised response (CAL-148 [4]) [%]	normalised response (CAL-51 [5]) [%]	normalised response (CAL-85-1 [6]) [%]	normalised response (DU-4475 [7]) [%]	normalised response (HCC1143 [8]) [%]	normalised response (HCC1599 [9]) [%]	normalised response (HCC1937 [10]) [%]	normalised response (HDQ-P1 [11]) [%]	normalised response (MCF-10A [12]) [%]	normalised response (MDA-MB-231 [13]) [%]	normalised response (MDA-MB-436 [14]) [%]	normalised response (MDA-MB-453 [15]) [%]	normalised response (MDA-MB-468 [16]) [%]	normalised response (MFM-223 [17]) [%]	normalised response (Hs578T [18]) [%]	normalised response (BT-474 [19]) [%]	normalised response (BT-549 [20]) [%]	normalised response (CAL-120 [21]) [%]	normalised response (CAL-148 [22]) [%]	normalised response (CAL-51 [23]) [%]	normalised response (CAL-85-1 [24]) [%]	normalised response (DU-4475 [25]) [%]	normalised response (HCC1143 [26]) [%]	normalised response (HCC1599 [27]) [%]	normalised response (HCC1937 [28]) [%]	normalised response (HDQ-P1 [29]) [%]	normalised response (Hs578T [30]) [%]	normalised response (MCF-10A [31]) [%]	normalised response (MDA-MB-231 [32]) [%]	normalised response (MDA-MB-436 [33]) [%]	normalised response (MDA-MB-453 [34]) [%]	normalised response (MDA-MB-468 [35]) [%]	normalised response (MFM-223 [36]) [%]
O=C(O)c1ccc(-c2c[nH]c3ncc(-c4ccccc4)cc23)cc1C1CCCC1 (1 nM)	99.9	106	99	103	88.9	104	98.4	112	90.1	80	94.8	79.8	93.9	82.4	99.4	105	100																			
Nc1ccn([C@@H]2O[C@H](CO)[C@@H](O)C2(F)F)c(=O)n1 [Gemcitabine] (0.1 nM)	99.9	98.1	103	101	94	107	104	119	102	112	57.9	102				118	104	101																		
COC1=CC(c2cc3ccccc3[nH]2)=N/C1=C\c1[nH]c(C)cc1C [Obatoclax] (1 nM)	87.2	100	98.8	95.7	111	98.7	97	62.9	102	54.4		71.3	82.4	85.6	79.2		94.7																			
O=C(Nc1cccnc1)N1CCC(Cc2cccc(Oc3ccc(C(F)(F)F)cn3)c2)CC1 [PF-3845] (10 nM)																			103	106	106	109	101	98.1	110	113	109	106	109	132	72	118	84.5	107	67.8	104
CC(=O)c1c(C)c2cnc(Nc3ccc(N4CCNCC4)cn3)nc2n(C2CCCC2)c1=O [Palbociclib] (1 nM)	97.7		93.8	93.1	120	93	94.9	117	98.3	99	66.7	103	86.4		102	106	99.9	67.2																		
COc1cc(F)c(F)c(Nc2ccc(I)cc2F)c1NS(=O)(=O)C1(C[C@H](O)CO)CC1 [Refametinib] (1 nM)	91	89	97.6	99.3	74.1	97.7	94.3	101	94.2	86.7	91.4	105	103		104		88.8	98.7																		
c1ccc2c(CCNc3ccc(Nc4ccncc4)cc3)c[nH]c2c1 [Serdemetan] (10 nM)																			98.8	99.8	99.9	102	94.5	102	97.9	103	92.1	91.7	111	120	105	74.5	84	51	88.4	93
CN(N=O)C(=O)N[C@@H](C=O)[C@@H](O)[C@H](O)[C@H](O)CO [Streptozocin] (1 nM)	101	110	105	90.6	116	97.8	112	96.7	106	113	108	104	112	95.8		90.9	60.2																			
COc1cc2c(N3CCN(C(=O)Nc4ccc(OC(C)C)cc4)CC3)ncnc2cc1OCCCN1CCCCC1 [Tandutinib] (0.1 nM)	101	91.5	96.8	100	79	102	99.7	103	83.6	86.1		89.3	97.5	64.6	102	112	89.5																			
C[C@@H](C(=O)O)c1ccc(-c2ccccc2)c(F)c1 [Tarenflurbil] (1 nM)	97.5	104	99.3	100	98.7	97.6	97.2		89.7	86.6	98.1	78.5	96.7		107	82.9	73.6	94																		
CC1=C(/C=C/C(C)=C/C=C/C(C)=C/C(=O)O)C(C)(C)CCC1 [Tretinoin] (10 nM)																			106	102	98.4	109	83.1	112	94.2	108	102	120	111	129	95.4	114	107	95.5	152	101
O=C(CCCCCCC(=O)Nc1ccc([C@H]2O[C@@H](CSc3nc(-c4ccccc4)c(-c4ccccc4)o3)C[C@@H](c3ccc(CO)cc3)O2)cc1)NO [Tubacin] (10 nM)																			103	109	99.9	109	115	107	97	107	92.3	101	115	120	78.2	100	101	90	105	91.9
COc1cc2c(NC3CCN(C(C)C)CC3)nc(N3CCC(F)(F)CC3)nc2cc1OCCCN1CCCC1 [UNC0642] (1 nM)	99.2	100	98.7	98.4	97.8	97.1	93.8	94.1	102	77.9	78.2	97.1	97.7	78.1	100	91.8	95.1																			
COc1cc2c(NC3CCN(C(C)C)CC3)nc(N3CCC(F)(F)CC3)nc2cc1OCCCN1CCCC1 [UNC0642] (10 nM)																			99	104	99.4	106	73.4	99.1	93.5	107	94.1	99.7	116	116	98.5	95.5	70.8	95.1	90.1	103

Part of the list above, limited to normalised response (BT-474 [1]) [%], normalised response (MCF-10A [12]) [%] and normalised response (DU-4475 [25]) [%]:
Compound | normalised response (BT-474 [1]) [%] | normalised response (MCF-10A [12]) [%] | normalised response (DU-4475 [25]) [%]
COc1cc2c(N3CCN(C(=O)Nc4ccc(OC(C)C)cc4)CC3)ncnc2cc1OCCCN1CCCCC1 [Tandutinib] (0.1 nM) | 101 | 89.3 | 
C[C@@H](C(=O)O)c1ccc(-c2ccccc2)c(F)c1 [Tarenflurbil] (1 nM) | 97.5 | 78.5 | 
